No constants are given. Whether binding was seen depends on the method and setting. Binding seen in cells or lysates may run through a third protein. Here binding means that the protein was enriched with, or labelled near, the bait; the list need not be complete. Where a sequence is shown, tags or fusion partners need not be part of it.
Target: T1, Synaptotagmin-4 (SYT4), overexpressed in cells (UniProt Q9H2B2)
T1 sequence: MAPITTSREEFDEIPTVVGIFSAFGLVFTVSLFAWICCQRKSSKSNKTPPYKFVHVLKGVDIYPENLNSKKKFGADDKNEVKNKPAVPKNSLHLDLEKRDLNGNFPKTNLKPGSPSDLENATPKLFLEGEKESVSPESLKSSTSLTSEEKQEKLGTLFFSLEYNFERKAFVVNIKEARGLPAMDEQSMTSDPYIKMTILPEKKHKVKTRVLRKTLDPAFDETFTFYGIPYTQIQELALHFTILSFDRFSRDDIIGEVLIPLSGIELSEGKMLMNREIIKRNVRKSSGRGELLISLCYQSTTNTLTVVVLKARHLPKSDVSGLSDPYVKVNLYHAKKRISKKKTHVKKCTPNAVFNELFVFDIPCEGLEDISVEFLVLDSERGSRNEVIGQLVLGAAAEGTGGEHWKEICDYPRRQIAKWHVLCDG
Assay: affinity purification with mass spectrometry; IP from RIPA lysates of SYT4-overexpressing and control cells with anti-Flag or IgG overnight at 4 °C, protein A/G magnetic beads; bound proteins identified by mass spectrometry (Orizymes)

The chains behind the UniProt entries cited, without tags or fusion partners.
UniProt P62333: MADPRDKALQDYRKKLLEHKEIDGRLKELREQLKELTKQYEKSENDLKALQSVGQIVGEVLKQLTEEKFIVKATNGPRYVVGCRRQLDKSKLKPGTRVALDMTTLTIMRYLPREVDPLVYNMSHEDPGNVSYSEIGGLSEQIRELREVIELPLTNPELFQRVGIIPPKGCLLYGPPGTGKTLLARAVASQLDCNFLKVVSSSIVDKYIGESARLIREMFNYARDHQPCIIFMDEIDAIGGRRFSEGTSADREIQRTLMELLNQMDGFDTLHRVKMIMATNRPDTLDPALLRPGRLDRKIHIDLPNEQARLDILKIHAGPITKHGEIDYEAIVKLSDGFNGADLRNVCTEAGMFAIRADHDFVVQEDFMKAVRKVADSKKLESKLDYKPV

Substance: Proteasome 26S subunit ATPase 6 (PSMC6), in cell lysate (from UniProt P62333 1-389)
- binding: binds

From article PMC12631102, “SYT4 Interacts with PSMC6 to Facilitate Malignant Progression in Gastric Carcinoma via Activating Wnt/β-catenin Signaling” (International Journal of Biological Sciences, 2025)
